Reference: patent US9657062B2 (Zealand Pharma A/S, priority 2012, dated 2017)

Test: general procedure: Fmoc solid-phase peptide synthesis; TentaGel S PHB Fmoc-Arg(Pbf); HATU or COMU with DIPEA
Details: whole synthesis

Row | Substance | crude mass (scale 0.940 mmol) [mg] | isolated mass (scale 0.940 mmol) | crude mass (scale 0.326 mmol) [mg] | isolated mass (scale 0.326 mmol)
1 | H-GSSFLSPEHQRVQQRKESKKPPAKLQPR-OH | 600 | approx. 61 mg |  | 
2 | H-GS-S(O-octanoyl)-FLSPEHQRVQQRKESKKPPAKLQPR-OH |  |  | 450 | approx. 91 mg
